The labels stand for the following.
B1: phosphoethanolamine N-methyltransferase (enzyme, UniProt Q8IDQ9 1-266)
chain: MTLIENLNSDKTFLENNQYTDEGVKVYEFIFGENYISSGGLEATKKILSDIELNENSKVLDIGSGLGGGCMYINEKYGAHTHGIDICSNIVNMANERVSGNNKIIFEANDILTKEFPENNFDLIYSRDAILHLSLENKNKLFQKCYKWLKPTGTLLITDYCATEKENWDDEFKEYVKQRKYTLITVEEYADILTACNFKNVVSKDLSDYWNQLLEVEHKYLHENKEEFLKLFSEKKFISLDDGWSRKIKDSKRKMQRWGYFKATKN

By UniProt entry, the sequences of proteins in these tests, tags left out.
UniProt Q8I719: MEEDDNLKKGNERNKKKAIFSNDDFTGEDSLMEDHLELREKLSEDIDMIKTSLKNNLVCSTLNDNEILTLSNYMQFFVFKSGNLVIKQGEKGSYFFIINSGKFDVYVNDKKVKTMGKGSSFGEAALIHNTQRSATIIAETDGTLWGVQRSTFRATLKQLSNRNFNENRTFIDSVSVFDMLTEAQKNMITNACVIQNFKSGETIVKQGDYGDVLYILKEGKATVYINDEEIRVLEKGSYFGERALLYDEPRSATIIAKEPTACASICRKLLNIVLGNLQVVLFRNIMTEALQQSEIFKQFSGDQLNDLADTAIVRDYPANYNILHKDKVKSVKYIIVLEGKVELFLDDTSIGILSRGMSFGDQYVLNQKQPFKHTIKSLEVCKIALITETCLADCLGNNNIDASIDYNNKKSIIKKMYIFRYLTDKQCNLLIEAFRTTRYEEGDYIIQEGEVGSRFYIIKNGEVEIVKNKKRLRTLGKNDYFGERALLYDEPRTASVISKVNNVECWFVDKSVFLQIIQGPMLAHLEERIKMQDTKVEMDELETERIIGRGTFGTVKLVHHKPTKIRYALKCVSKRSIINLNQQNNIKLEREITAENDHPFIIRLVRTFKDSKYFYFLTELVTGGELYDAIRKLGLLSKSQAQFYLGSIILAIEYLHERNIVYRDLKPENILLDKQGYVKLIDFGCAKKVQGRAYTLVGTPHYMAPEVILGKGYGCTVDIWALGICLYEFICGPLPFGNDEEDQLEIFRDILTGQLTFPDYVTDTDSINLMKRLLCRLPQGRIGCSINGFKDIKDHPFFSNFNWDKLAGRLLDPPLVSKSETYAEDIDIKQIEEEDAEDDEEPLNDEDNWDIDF
UniProt Q8IKK7: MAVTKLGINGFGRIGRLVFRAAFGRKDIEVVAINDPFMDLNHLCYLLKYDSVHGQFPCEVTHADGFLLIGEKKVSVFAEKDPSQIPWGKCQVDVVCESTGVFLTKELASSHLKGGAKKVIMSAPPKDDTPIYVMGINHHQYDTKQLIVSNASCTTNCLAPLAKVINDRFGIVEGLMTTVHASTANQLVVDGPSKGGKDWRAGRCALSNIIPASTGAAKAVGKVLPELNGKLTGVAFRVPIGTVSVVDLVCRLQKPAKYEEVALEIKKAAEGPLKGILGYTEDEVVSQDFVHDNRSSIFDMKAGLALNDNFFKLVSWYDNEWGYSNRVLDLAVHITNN

No constants are given. Whether binding was seen depends on the method and setting. Binding seen in cells or lysates may run through a third protein. A yes stands for co-enrichment or nearness to the bait. Other partners may have been found. No binding means not detected with the bait.

The target in this assay is T1, Pf14-3-3I (P. falciparum 3D7 (endogenous in merozoites)) (UniProt C0H4V6).
T1 sequence: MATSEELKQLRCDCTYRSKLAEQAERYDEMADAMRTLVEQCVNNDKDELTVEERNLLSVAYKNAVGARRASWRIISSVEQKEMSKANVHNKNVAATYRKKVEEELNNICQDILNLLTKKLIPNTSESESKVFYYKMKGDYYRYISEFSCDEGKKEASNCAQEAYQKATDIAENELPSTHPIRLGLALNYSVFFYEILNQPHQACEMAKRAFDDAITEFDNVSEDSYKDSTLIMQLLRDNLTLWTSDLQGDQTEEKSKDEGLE
The assay is described as follows: affinity purification with mass spectrometry; IP with anti-PfPKAr, anti-PfCDPK1 or anti-Pf14-3-3I polyclonal sera (Pierce co-IP kit) from lysates of merozoites in RPMI 1640 (low K+); eluates analysed by LC-MS/MS, MaxQuant.
“P. falciparum protein kinase A catalytic subunit (PfPKAc) (enzyme)”: the binding result is “binds”.

Turning to “P. falciparum protein kinase G (PfPKG) (from UniProt Q8I719 1-853) (enzyme)”, the binding entry was “no binding”.

Regarding actin-depolymerizing factor 1, the binding entry is listed as “binds”.

Regarding “glyceraldehyde-3-phosphate dehydrogenase (from UniProt Q8IKK7 1-337) (enzyme)”, the binding entry was “binds”.

Turning to B1, the binding result was “binds”.

These data come from article PMC7439480, “Phosphorylation-Dependent Assembly of a 14-3-3 Mediated Signaling Complex during Red Blood Cell Invasion by Plasmodium falciparum Merozoites” (mBio, 2020).
